Source: PubChem BioAssay AID1508600 (Functional Genomics Laboratory (NCATS/FGL), 2020)
The campaign covered roughly 53,000 sequences. About 3,700 (7%) were called active.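 Rule for the calls: active = gene knockdowns whose robust z-score for IL-1 alpha signal is at least 2 or at most -2, so actives lie on both sides; inactive = the rest.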 The list shows a part of the results.

Experiment: Components of the Cytosolic LPS Sensing Pathway: Gene Identification via Genome-wide siRNA Screen;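 note: robust z of the log signal after scaling to non-targeting control siRNA wells of the plate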
Conditions: RAW264.7 macrophages, IL-1a HTRF, actives lie on both sides, screened at 100 nM (by protocol), cells primed 5 h with Pam3CSK4 first
Method in brief: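 RAW264.7 mouse macrophages reverse-transfected with single siRNAs (100 nM final) for 48h, primed with Pam3CSK4 for 5 hours, then transfected with LipidA for 24 hour. Supernatant IL-1a read by HTRF; values normalized to negative-control median, log-transformed robust z-scores.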

Sequence | z-score
GGACAAUGAAGAUUUGGAATT against Ush2a | inactive: -0.669
GGAGACAGCUCAAAAAGAATT against Clp1 | inactive: -0.921
CCAAGAAGCUCCCACGAUATT against Gm839 | inactive: 0.395
GGGCUCCUCAAUCACAAAUTT against Slc27a5 | inactive: -0.2
CCAGAUAUGCACAUGAUAUTT against Spata33 | inactive: -0.314
CCACAUUCAGCCAAUGAAGTT against Olfr195 | inactive: -1.25
GGUGUAUGAACAGCUCUAUTT against Lin7b | inactive: 1.09
GGGCAAGACUGUUUCUGUGTT against 9830107B12Rik | inactive: -0.471
GGUCAUAGCUUAGAAGGUGTT against Rhov | inactive: -0.233
CCCAGGUGAGACCUUUACCTT against Fndc3b | inactive: -1.76
GGGCUAUGCCUACUACACUTT against Fn3k | inactive: 0.976
UUAUAGAAACGACAAGACUTT against Tmem126b | inactive: -0.518
GCAGAAGCUAUAUAGCAAGTT against Gpat4 | inactive: -1.3
GGCCAUCGUCUUGAAGAAGTT against Cdca5 | inactive: 0.661
GGACCAACGUGCAGAAAUGTT against Metrn | inactive: -0.702
GGAGUGAUAGUCAUCAAUGTT against Olfr357 | inactive: -0.464
GGAGACCAGGAAUAAUUGUTT against 5330438I03Rik | inactive: 0.216
GCAGGAAUGUUCAGAAACATT against Txlng | inactive: -1.66
GGAACAAUAUAUCUUCAUCTT against Ptpru | inactive: 0.583
GGAUCUGGUGAAACUAGCUTT against Psmd4 | inactive: 0.0684
GCAGAAGAAACAGCUGUCUTT against Tmem140 | inactive: -1.95
GGUCACUUCCUGUCUUUAATT against Crlf2 | inactive: -0.771

Sequence | z-score
GGAAACAAAUGAGUUGCUGTT against Stx12 | inactive: -0.7
CUGCGAGGCUUUUUAAAUGTT against Prr7 | inactive: -0.346
GGUAUUGGUCCAAUUUUUCTT against Gng7 | inactive: 0.187
CCCAGAGCUGUUAUUUAAATT against Ripk3 | inactive: 0.514
GGUUACAGCACUGAUUGUUTT against Chac2 | inactive: 0.77
GGGUCAUGUAACUAGUAUATT against Tprkb | inactive: 0.973
GCACAGGUCUAAUUCGUCUTT against Grik1 | active: -2.78
GGUUGAGAAGUCUGUUAAUTT against Hsph1 | inactive: 1.05
GGAUGAGUGCAGCAAAAGUTT against Gm4861 | inactive: 0.396
GGUGGUAGUUUAUGAUCAATT against Dusp16 | inactive: -0.00387
GGCAACAAUGGUUGUCUUGTT against Ctsr | inactive: 0.515
GGUCAUUCCUGUGCACCAGTT against Psmb11 | inactive: 0.526
CCUGUGAAAUACCAGCGUGTT against Rsl24d1 | active: 2.05
GGACAUGACCAAAAGGCUGTT against Zfp706 | active: 3.84
GCUAGUAUUGAGCAACAACTT against Rnh1 | inactive: 0.0349
GGUCCUUAACCGCUAUGCATT against Esrp2 | inactive: 0.294
GCAACGUAACAUUACUAUCTT against Rxfp2 | inactive: 0.158
CCAAAUUCCUAUCAAGUUUTT against Ints2 | inactive: 1.98
GCUCAGUUUAUACCAAAAUTT against Api5 | active: -2.31
GGUAACUGAAACUCAAUUATT against Tceanc2 | inactive: 1.32
GGUGUGAACUCCUUCCUGGTT against Dpysl4 | inactive: 1.01
GGCUAAGACUAUGUUGUAATT against Smcp | inactive: -1.48

Sequence | z-score
GGGAUGACUUGUUCACAUCTT against Trmt2a | inactive: -0.0324
GGCUUGAUGGGCUUUUUGCTT against Ndufb8 | inactive: 0.285
GGUCUUCCUUGAACAUCAGTT against Fev | active: -2.05
CCCUCUACUACUGCAUCGUTT against Xkr7 | inactive: 1.74
CCUAUUUUCUAUGUUGCCUTT against Cnih2 | inactive: 0.479
GGCGUAACCUAACAUGGGATT against Clec1b | inactive: -1.35
GGAGAAGAAGGAGAGGAUGTT against Myo18a | inactive: -0.347
GGUCACCUGGGUAUUUAUGTT against Tead3 | inactive: -1.06
CGAGAAGAUAUUUAAAGAGTT against Myo10 | inactive: -0.045
CCCUGAUGAAUAAGGACUCTT against Kif17 | inactive: -0.516
GGAUUUUGUUCUUCAUCCATT against Nedd4 | inactive: -0.142
GCCAUAAUAAUCAAUGUGATT against Galm | inactive: -0.759
CAGCAUCUUUGAUUGUCUGTT against Tssc4 | active: 2.15
GGUAACAAGAGGUCUAGCATT against P2ry1 | active: 3.66
GGAUGAAAUGAACCUAGAGTT against Sh3pxd2b | active: -2.16
GCUUUCAUGUCCUAAAGAATT against 4921504E06Rik | inactive: -0.242
GGCACAGUAAUCUUUUUCUTT against Triqk | inactive: -1.51
CCCAGACAUAUUUUACUCGTT against Ido2 | inactive: -1.14
GGAAAUCAUUCUCCUUCAUTT against Sned1 | inactive: 0.492
GGAUGCAUCUUGGGUACUGTT against Vmn1r74 | inactive: 0.446
GCUCUUUCUAGCUUAUGAUTT against Chmp1b | inactive: -0.464
GGAACUGUUUGACAGUGAGTT against Pex19 | inactive: -0.811

Rewritten as tab-separated lines: part of the list above
Sequence	z-score
GGAUGCAUCUUGGGUACUGTT against Vmn1r74	inactive: 0.446
GCUCUUUCUAGCUUAUGAUTT against Chmp1b	inactive: -0.464

(further entries)

Sequence | z-score
AGUGUAACUGCAGAAGCCUTT against Olfr207 | inactive: -1.3
GGAAGUUGUAGGAGAAAACTT against Rnf214 | inactive: -0.624
GGCAGGAAGGACAAUCAGUTT against Thsd7b | inactive: -0.349
CGAAGUGACUGGAAAAAAATT against Wbp2 | inactive: -0.768
GUGAAGAAAGUCAUCAAGATT against Olfr1506 | inactive: -0.182
GGGACAAAGGCUCAACAUATT against Pid1 | inactive: 1.79
GGGAGAGUCAAAAAAAGAUTT against Khdrbs1 | inactive: -0.536
CUUAGCUUACAAACAAGGCTT against Gm5617 | inactive: 0.485
GCUUUUGAUCGCAAUACAGTT against Spag9 | inactive: 0.724
GGUGAAGGUCAGCAAAGAATT against Exosc5 | inactive: -1.17
GCUUUGAGAACCUUGGUAATT against Rab9b | inactive: -0.652
CCCAGCAUACCAUCUCUACTT against Arhgef1 | inactive: 0.619
GGAUAUGGACUAUUCACGGTT against Dgat1 | inactive: -1.32
GGAACUGAAUGCUCUUCCATT against Msln | inactive: -0.145
AUGAUUCACAGUGCAGUGATT against Gimap1 | inactive: -0.575
CCUACAGCGAGCUAUUUCATT against Epc2 | inactive: -1.07
GCCUCUUUUCACACUUAAATT against Olfr608 | inactive: -1.16
CGAAUGUGGCUAUGACCUGTT against Kif6 | inactive: 0.555
GGAAUUAACGUGUUUCUGUTT against Tor1aip2 | inactive: 1.14
GGGCAUGUUCACCAUCAGATT against Sec1 | inactive: -1.42
CCAUCUACGAUCAAGAGAATT against Cryba1 | inactive: -0.288
GGAAUGUGCUCAUUUUUGATT against Hspa8 | inactive: -1.97

Sequence | z-score
GGUUUUAAAGUCAUUGUUGTT against Piezo2 | inactive: 0.0777
CGAGAAUAUCAUUUAUUGCTT against Alkbh7 | inactive: 1.52
GCCACUUACACUUACUUGATT against Olfr1331 | inactive: -0.15
CCUGGUGCAUGCUUUAAUATT against Kynu | inactive: -0.603
GGAUGUGCCCAACUGGAAGTT against Ndufa13 | inactive: -0.676
UGAAUCACCACCCGGAAUGTT against Pcbd2 | inactive: 0.41
GGUGGAGUGAUACGAAGAGTT against Radx | inactive: 1.21
GAGAAACACCAUCUCCUAUTT against Olfr502 | inactive: -1.2
CCUGAUCUGUGGCACGGAUTT against Spink4 | inactive: 0.672
GGAUUUCUUCAAGUCCUUGTT against Scgb1a1 | inactive: 0.705
GGCCAUAUUGGAGCAAAUCTT against Nppa | inactive: 0.0999
GGCAGAAAGUUAUUAUAGGTT against Plppr3 | inactive: -0.318
GGAGUUUUGGGUGAUGAUATT against Olfr974 | active: -2.41
GGUCUUCGAAAGAACCAAGTT against Siva1 | inactive: -0.333
GGAGAAGACCUGAUUCCAGTT against Zfx | inactive: 0.195
GCUUUUUGGAGGAAUUCACTT against Gm6034 | inactive: 0.208
CGAGUUAUUCUUGUUAUAGTT against Vmn1r178 | inactive: 0.356
CCUUGUCCCUUUACCUCAATT against Plk5 | inactive: -1.39
GCAAGACCCAAGAGUUACATT against Soat2 | active: -2.07

Reprinted at random: 6 entries already listed.
Sequence | z-score
CGAAGUGACUGGAAAAAAATT against Wbp2 | inactive: -0.768
GGAUGAGUGCAGCAAAAGUTT against Gm4861 | inactive: 0.396
GGUCAUAGCUUAGAAGGUGTT against Rhov | inactive: -0.233
GGAGACCAGGAAUAAUUGUTT against 5330438I03Rik | inactive: 0.216
GGAGAAGACCUGAUUCCAGTT against Zfx | inactive: 0.195
GGAUGUGCCCAACUGGAAGTT against Ndufa13 | inactive: -0.676
